Binding data for 1 substance are collected here from publication PMC9282857.

By UniProt entry, the sequences of proteins in these tests, tags left out.
UniProt P39940: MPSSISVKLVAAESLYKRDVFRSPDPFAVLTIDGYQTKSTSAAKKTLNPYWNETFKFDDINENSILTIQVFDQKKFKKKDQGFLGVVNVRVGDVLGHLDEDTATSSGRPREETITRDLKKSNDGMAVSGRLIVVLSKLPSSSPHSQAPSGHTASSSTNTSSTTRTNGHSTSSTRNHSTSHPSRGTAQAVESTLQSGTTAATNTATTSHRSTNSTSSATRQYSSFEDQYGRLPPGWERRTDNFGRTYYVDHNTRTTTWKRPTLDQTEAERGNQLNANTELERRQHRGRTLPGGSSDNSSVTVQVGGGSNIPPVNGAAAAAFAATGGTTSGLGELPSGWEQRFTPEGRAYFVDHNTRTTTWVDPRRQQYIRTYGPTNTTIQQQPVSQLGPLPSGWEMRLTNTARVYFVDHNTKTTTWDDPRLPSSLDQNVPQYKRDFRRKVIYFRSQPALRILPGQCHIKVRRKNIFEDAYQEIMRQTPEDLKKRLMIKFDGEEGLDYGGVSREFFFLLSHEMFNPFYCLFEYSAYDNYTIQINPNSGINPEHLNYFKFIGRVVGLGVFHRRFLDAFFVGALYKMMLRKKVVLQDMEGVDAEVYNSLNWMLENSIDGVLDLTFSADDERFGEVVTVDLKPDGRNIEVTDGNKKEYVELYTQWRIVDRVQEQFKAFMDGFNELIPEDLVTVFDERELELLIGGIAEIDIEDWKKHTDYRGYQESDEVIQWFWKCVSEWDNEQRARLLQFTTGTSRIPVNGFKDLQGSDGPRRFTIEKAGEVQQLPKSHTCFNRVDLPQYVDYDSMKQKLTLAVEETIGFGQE

No constants are given. Whether binding was seen depends on the method and setting. Binding seen in cells or lysates may run through a third protein. Some entries that bind do so weakly or less than the wild type.

The experiment concerns the target T1, art5^K364R (S. cerevisiae) (UniProt P53244).
T1 sequence: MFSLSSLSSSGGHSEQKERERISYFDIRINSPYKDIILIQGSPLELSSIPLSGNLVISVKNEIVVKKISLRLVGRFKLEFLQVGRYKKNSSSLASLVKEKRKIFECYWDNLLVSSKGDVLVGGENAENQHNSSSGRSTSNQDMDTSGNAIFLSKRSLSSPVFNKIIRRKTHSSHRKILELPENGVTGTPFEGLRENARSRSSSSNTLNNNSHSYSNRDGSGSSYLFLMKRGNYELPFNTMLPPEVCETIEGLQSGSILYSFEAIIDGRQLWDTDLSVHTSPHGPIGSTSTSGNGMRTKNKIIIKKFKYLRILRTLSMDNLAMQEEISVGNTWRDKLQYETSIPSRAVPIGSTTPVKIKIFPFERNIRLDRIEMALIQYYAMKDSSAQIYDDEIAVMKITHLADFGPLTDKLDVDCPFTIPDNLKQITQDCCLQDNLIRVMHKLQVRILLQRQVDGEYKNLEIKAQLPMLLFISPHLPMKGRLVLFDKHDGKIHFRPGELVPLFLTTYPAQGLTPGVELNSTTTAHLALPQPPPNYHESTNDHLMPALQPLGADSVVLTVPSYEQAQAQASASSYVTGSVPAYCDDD
The experiment in a line: co-IP; yeast lysate in IP buffer with 1% Triton X-100; ART protein bound to FLAG-M2 affinity gel 4 hr at 4°C; blot for Rsp5.

With “Rsp5 (from UniProt P39940 1-809) (enzyme)”, the binding result is recorded as “binds”.
